# Results are given in words; binding and its absence hold for the method and conditions named. Binding seen in cells or lysates may run through a third protein. A yes stands for co-enrichment or nearness to the bait. Other partners may have been found. Tags and fused reporters may be left off the sequences shown.
# T1: His6-tagged Fra expressed in B. subtilis 168 AM09 (Bacillus subtilis 168) (UniProt Q797E6)
# T1 sequence: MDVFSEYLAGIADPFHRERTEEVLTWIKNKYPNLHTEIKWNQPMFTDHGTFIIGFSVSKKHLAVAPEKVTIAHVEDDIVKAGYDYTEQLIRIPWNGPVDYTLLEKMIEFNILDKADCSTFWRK
# Molecular target: T1, His6-tagged Fra expressed in B. subtilis 168 AM09 (Bacillus subtilis 168)
# Assay: affinity purification with mass spectrometry; crude extract of B. subtilis AM09 (His6-Fra) on a Ni2+-NTA spin column; washed with 20 mM imidazole, eluted with 500 mM imidazole; SDS-PAGE bands identified by peptide mass fingerprinting; WT extract as control
binder,measurement,value
"ferrochelatase HemH, endogenous in B. subtilis 168 AM09 (enzyme, UniProt P32396 1-310) MSRKKMGLLVMAYGTPYKEEDIERYYTHIRRGRKPEPEMLQDLKDRYEAIGGISPLAQITEQQAHNLEQHLNEIQDEITFKAYIGLKHIEPFIEDAVAEMHKDGITEAVSIVLAPHFSTFSVQSYNKRAKEEAEKLGGLTITSVESWYDEPKFVTYWVDRVKETYASMPEDERENAMLIVSAHSLPEKIKEFGDPYPDQLHESAKLIAEGAGVSEYAVGWQSEGNTPDPWLGPDVQDLTRDLFEQKGYQAFVYVPVGFVADHLEVLYDNDYECKVVTDDIGASYYRPEMPNAKPEFIDALATVVLKKLGR",binding,binds
